Experimental data: the supplement of paper PMC10849652
The list shows a part of the results.

Amino acid sequences for entries named in this document (tags omitted). A change or cut given only in a name is not applied to a line headed by its entry.
UniProt Q8TA86: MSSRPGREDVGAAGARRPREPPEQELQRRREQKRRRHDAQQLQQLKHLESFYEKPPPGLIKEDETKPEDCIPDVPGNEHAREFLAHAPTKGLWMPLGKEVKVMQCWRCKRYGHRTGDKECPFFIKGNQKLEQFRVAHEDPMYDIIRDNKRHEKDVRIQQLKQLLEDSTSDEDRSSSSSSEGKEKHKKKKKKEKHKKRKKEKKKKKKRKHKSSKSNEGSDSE
UniProt Q96G75, whole entry, looked up: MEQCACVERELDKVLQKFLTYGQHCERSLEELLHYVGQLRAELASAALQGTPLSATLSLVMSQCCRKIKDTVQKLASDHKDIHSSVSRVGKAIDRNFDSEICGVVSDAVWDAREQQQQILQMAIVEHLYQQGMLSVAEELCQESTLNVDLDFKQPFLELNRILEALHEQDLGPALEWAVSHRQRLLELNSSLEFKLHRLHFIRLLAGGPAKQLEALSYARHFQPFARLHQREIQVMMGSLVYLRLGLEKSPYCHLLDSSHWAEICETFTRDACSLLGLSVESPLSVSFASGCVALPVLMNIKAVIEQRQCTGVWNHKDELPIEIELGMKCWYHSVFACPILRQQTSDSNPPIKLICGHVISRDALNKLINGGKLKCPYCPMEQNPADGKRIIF
UniProt Q9BXT8: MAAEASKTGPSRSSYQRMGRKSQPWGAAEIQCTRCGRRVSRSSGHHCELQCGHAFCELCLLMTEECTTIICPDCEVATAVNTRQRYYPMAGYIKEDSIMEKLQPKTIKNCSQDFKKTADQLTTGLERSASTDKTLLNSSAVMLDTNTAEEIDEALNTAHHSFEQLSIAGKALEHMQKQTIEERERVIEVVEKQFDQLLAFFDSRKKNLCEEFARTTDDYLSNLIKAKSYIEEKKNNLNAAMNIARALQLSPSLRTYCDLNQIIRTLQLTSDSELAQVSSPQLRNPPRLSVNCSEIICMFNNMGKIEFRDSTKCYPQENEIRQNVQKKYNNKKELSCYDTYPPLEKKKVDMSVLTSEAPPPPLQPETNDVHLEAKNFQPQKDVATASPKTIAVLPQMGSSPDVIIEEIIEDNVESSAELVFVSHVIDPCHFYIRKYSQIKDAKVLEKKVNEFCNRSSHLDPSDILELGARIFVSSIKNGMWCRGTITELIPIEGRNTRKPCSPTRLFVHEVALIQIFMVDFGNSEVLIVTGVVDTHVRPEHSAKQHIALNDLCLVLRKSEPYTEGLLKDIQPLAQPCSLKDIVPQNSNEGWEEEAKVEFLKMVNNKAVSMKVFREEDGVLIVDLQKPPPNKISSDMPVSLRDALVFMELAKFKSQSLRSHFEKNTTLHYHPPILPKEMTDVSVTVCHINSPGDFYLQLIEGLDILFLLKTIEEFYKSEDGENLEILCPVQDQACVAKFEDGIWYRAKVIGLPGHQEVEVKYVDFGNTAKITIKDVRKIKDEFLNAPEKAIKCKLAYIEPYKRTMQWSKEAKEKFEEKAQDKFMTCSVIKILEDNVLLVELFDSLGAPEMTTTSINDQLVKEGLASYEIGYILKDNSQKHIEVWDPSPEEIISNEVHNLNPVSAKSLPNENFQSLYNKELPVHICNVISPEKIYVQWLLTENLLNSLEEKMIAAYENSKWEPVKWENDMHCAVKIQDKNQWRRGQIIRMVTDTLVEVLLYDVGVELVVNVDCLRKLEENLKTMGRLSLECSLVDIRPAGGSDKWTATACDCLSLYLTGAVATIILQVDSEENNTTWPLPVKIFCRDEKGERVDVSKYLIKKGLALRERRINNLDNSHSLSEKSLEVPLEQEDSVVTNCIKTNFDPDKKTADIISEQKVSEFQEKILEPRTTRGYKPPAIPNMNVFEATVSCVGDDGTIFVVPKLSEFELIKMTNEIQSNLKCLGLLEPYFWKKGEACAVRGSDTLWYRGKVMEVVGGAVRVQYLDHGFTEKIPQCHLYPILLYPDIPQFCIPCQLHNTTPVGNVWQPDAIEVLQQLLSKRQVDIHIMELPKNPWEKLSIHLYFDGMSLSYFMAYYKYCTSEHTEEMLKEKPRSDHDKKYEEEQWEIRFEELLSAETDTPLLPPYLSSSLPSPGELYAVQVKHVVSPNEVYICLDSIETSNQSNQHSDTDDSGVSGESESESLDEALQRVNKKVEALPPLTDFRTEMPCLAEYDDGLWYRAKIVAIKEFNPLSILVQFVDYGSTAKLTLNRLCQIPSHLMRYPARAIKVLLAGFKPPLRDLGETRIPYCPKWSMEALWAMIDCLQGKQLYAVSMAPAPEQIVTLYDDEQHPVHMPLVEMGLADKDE
UniProt Q9HCK4: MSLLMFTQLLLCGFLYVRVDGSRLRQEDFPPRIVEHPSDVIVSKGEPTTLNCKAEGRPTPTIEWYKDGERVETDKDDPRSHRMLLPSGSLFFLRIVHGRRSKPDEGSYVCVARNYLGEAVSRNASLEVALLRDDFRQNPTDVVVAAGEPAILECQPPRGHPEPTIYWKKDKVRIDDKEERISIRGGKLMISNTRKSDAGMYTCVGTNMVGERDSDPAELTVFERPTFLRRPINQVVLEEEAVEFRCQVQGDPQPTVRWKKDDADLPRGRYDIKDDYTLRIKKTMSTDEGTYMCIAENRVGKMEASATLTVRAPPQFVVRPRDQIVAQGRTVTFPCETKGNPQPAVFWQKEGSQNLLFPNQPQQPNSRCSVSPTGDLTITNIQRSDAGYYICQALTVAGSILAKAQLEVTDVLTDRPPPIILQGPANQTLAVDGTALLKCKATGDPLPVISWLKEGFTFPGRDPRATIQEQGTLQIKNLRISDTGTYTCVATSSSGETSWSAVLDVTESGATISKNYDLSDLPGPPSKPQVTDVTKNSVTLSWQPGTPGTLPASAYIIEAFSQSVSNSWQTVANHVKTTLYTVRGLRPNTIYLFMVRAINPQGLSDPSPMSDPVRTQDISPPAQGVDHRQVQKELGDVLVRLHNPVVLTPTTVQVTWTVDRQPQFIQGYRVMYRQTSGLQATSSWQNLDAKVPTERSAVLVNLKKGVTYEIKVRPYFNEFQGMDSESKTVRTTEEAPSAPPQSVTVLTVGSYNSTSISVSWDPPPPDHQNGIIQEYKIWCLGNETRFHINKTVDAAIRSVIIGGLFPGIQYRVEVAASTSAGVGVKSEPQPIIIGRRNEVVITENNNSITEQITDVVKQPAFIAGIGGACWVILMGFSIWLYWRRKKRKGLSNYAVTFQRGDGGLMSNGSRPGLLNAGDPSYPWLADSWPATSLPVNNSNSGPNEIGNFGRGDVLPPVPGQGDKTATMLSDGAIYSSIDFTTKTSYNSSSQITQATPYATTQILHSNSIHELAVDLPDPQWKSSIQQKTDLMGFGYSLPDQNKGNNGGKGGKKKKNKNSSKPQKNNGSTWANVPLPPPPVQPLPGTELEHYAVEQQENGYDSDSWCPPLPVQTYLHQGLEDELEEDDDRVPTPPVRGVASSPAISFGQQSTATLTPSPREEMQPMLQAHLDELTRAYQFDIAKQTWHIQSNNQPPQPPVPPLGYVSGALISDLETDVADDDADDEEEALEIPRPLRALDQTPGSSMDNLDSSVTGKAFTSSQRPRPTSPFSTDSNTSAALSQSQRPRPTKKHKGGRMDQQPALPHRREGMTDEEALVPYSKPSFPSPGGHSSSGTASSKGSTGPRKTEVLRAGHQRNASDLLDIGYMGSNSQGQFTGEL
UniProt Q8IUC4: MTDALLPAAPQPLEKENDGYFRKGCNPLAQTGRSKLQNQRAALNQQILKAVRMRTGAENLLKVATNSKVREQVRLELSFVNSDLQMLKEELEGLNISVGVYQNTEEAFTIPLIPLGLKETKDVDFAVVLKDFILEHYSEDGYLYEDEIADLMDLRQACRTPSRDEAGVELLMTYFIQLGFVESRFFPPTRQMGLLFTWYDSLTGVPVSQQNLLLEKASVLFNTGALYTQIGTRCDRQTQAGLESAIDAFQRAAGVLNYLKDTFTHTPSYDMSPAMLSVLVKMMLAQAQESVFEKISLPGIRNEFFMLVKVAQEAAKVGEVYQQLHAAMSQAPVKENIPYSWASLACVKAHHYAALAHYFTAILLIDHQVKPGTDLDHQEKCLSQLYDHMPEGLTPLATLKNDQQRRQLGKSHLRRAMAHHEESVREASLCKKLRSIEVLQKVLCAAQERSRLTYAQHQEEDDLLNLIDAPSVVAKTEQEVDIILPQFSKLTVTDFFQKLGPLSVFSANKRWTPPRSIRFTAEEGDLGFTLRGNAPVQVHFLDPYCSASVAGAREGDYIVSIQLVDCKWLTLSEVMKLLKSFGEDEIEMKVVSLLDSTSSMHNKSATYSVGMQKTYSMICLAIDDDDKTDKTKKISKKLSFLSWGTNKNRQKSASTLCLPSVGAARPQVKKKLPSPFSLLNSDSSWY
UniProt Q9GZN7, whole entry, looked up: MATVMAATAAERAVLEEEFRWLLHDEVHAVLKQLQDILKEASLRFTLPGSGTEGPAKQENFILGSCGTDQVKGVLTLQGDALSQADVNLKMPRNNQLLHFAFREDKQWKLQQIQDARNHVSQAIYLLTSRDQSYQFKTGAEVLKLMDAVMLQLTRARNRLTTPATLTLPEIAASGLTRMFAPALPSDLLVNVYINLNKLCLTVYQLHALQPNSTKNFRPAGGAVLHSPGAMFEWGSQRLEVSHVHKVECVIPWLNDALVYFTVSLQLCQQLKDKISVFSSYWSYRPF
UniProt Q9ULI2: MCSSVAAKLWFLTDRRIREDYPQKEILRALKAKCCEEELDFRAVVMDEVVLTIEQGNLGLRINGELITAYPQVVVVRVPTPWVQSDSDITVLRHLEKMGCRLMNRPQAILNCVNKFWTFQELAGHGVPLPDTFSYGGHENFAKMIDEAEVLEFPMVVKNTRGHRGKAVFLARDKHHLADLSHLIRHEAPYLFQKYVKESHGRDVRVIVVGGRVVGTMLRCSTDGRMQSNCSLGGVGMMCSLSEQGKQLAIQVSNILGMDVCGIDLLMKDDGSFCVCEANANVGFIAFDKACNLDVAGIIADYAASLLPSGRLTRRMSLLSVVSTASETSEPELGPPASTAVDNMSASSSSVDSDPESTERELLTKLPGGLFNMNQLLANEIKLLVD
UniProt Q6ZS11: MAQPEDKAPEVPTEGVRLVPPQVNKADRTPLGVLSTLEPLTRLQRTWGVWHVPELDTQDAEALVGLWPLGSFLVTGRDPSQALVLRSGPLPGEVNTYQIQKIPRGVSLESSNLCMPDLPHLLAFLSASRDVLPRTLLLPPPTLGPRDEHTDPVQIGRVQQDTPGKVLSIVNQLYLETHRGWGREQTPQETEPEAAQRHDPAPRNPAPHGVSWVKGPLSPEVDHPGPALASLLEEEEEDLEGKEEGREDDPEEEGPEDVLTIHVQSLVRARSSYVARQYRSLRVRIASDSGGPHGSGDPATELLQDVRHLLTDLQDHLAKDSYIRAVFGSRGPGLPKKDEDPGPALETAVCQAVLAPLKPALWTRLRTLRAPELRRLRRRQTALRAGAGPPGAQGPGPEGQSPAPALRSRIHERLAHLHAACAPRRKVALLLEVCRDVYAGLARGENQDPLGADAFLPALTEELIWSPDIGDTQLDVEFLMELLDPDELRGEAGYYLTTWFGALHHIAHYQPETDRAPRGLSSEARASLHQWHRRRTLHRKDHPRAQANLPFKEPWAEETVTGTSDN

Tests used:
Assay in all cases: log2 fold change, soluble protein after heating vs DMSO (PISA); higher = thermal stabilisation; K562 lysate, 10 uM; active = over 0.2 and 3.5 SD of the protein, either way, in both replicates (recomputed)
erlotinib = compound: C#Cc1cccc(Nc2ncnc3cc(OCCOC)c(OCCOC)cc23)c1 [erlotinib]
Procedure, shortened: (§1)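 Thermal stability, expressed as log-two fold change relative to solvent controls, is given from duplicates. Crude K562 extract in PBS pH 7.4 with 1 mM MgCl2, at 1 mg/mL protein, was treated with 10 μM compound for 30 min and heated in aliquots for 3 min across 48°C-58°C. After pooling, adjustment to 0.5% NP-40 at 4°C and centrifugation at 21,000xg for 90 min, supernatant protein was measured by TMTpro 16plex LC-MS/MS with channel sums equalised.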

[1] = compound: C/C(=N\NC(=O)C1=CC(=CC=C1)S(=O)(=O)N2CCOCC2)/C3=C(C=CC(=C3)Cl)O
Procedure, shortened: as §1

[2] = compound: C1=CC(=CC=C1C2=NC3=C(N2)C=C(C=C3)C(=O)N)OC4=CC=C(C=C4)Cl
Procedure, shortened: as §1

[3] = compound: C1=CC2=C(C=CC(=C2)/C=C\3/C(=O)NC(=NCC4=CC=CS4)S3)N=C1
Procedure, shortened: as §1

[4] = compound: C1=CC=C2C(=C1)C3=NNC4=CC=CC(=C43)C2=O
Procedure, shortened: as §1

[5] = compound: CC(=O)c1cnc2ccc(-c3cc(Cl)c(O)c(Cl)c3)nc2c1N[C@H]1CC[C@H](CN(C)C)CC1
Procedure, shortened: as §1

[6] = compound: CC(C)C1=C2N=C(C=C(N2N=C1)NCC3=CC=CC=C3)NCCCCCCN
Procedure, shortened: as §1

[7] = compound: CC1=C(C2=C(C=C1)C(=O)C3=CC=CC=C3N2CCCN)C
Procedure, shortened: as §1

[8] = compound: CC1=C(C=C(C=C1)NC(=O)C2=CC(=CC=C2)C(C)(C)C#N)NC3=CC4=C(C=C3)N=CN(C4=O)C
Procedure, shortened: as §1

[9] = compound: CC1=CC=C(C=C1)SC2=C3C=C(SC3=CN=C2)C(=O)N
Procedure, shortened: as §1

[10] = compound: C1=CC2=NC=CN=C2C=C1/C=C/3\C(=O)NC(=O)S3
Procedure, shortened: as §1

[11] = compound: C1=CC=C(C=C1)C2=NC(=C(N2)C3=CC=NC=C3)C4=CC(=C(C=C4)Cl)O
Procedure, shortened: as §1

[12] = compound: C1CCN(C1)C(=O)NC2=CC=CC(=C2)NC3=NC=C(C(=N3)NCCC4=CN=CN4)Br
Procedure, shortened: as §1

[13] = compound: C1CN(CCC1(CC2=CC=C(C=C2)Cl)N)C3=NC=NC4=C3C=CN4
Procedure, shortened: as §1

IRAK-1-4 Inhibitor I = compound: C1COCCN1CCN2C3=CC=CC=C3N=C2NC(=O)C4=CC(=CC=C4)[N+](=O)[O-] [IRAK-1-4 Inhibitor I]
Procedure, shortened: as §1

ibrutinib = compound: C=CC(=O)N1CCC[C@@H](n2nc(-c3ccc(Oc4ccccc4)cc3)c3c(N)ncnc32)C1 [ibrutinib]
Procedure, shortened: as §1

ralimetinib = compound: CC(C)(C)Cn1c(N)nc2ccc(-c3[nH]c(C(C)(C)C)nc3-c3ccc(F)cc3)nc21 [ralimetinib]
Procedure, shortened: as §1

[14] = compound: CC(C)(O)CC(=O)NCCn1ccc2ncnc(Nc3ccc(Oc4cccc(C(F)(F)F)c4)c(Cl)c3)c21
Procedure, shortened: as §1

[15] = compound: CC1=C(C=C(C=C1)NC(=O)C2=CC(=CC=C2)N(C)C)NC(=O)C3=CC=C(C=C3)O
Procedure, shortened: as §1

[16] = compound: CC1=C(C(CC(=O)N1)C2=CC=C(C=C2)C(F)(F)F)C(=O)NC3=C(C=C4C(=C3)C=NN4)F
Procedure, shortened: as §1

Measured: log2 fold change

RP9 (UniProt Q8TA86)
inactive: erlotinib -0.03 | [1] 0.092 | [2] -0.04 | [3] 0.041 | [4] -0.134 | [5] -0.012 | [6] 0.015 | [7] 0.079 | [8] 0.001 | [9] 0.009

RMND5B (UniProt Q96G75)
inactive: [1] -0.022 | [3] -0.251 | [4] -0.132

RNF17 (UniProt Q9BXT8)
inactive: erlotinib -0.055 | [2] 0.008 | [10] 0.553 | [11] 0.013 | [12] -0.025 | [13] 0.033 | IRAK-1-4 Inhibitor I 0.055 | ibrutinib -0.098 | [5] 0.035 | ralimetinib -0.044 | [14] -0.254 | [6] -0.023 | [7] 0.077 | [8] -0.196 | [15] -0.044 | [9] -0.068

ROBO2 isoform 3 (UniProt Q9HCK4)
inactive: erlotinib 0.042 | [2] -0.013 | [11] 0.008 | IRAK-1-4 Inhibitor I -0.062 | [5] -0.015 | ralimetinib 0.103 | [14] -0.287 | [6] -0.045 | [8] 0.022 | [15] 0.177 | [9] -0.053

RHPN2 (UniProt Q8IUC4)
inactive: erlotinib 0.004 | [2] -0.048 | [11] -0.039 | [12] -0.045 | [13] 0.067 | IRAK-1-4 Inhibitor I -0.098 | [5] 0.032 | ralimetinib 0.038 | [14] 0.185 | [6] 0.023 | [16] -0.051 | [8] 0.085 | [15] -0.292 | [9] 0.027

ROGDI (UniProt Q9GZN7)
inactive: erlotinib 0.017 | [2] 0.03 | [10] 0.158 | [11] 0.025 | IRAK-1-4 Inhibitor I -0.122 | ibrutinib 0.116 | [5] 0.308 | ralimetinib 0.142 | [14] -0.15 | [6] -0.025 | [16] 0 | [7] -0.032 | [8] -0.024 | [15] 0.074 | [9] -0.011

RIMKLB (UniProt Q9ULI2)
inactive: [11] 0.026 | IRAK-1-4 Inhibitor I -0.024 | ralimetinib 0.221 | [14] 0.368 | [15] 0.01

RINL (UniProt Q6ZS11)
inactive: erlotinib 0.014 | [2] 0.013 | [10] 0.122 | [11] 0.077 | [12] -0.302 | [13] 0.195 | IRAK-1-4 Inhibitor I 0.035 | ibrutinib -0.041 | [5] 0.074 | ralimetinib 0.094 | [14] -0.063 | [6] -0.052 | [16] -0.057 | [7] 0.05 | [15] 0.017 | [9] 0.021
